# Percent effect of library compounds

Sequences of proteins named here, by UniProt entry; tags and fusion partners are left off. Residues count along the entry.
UniProt Q4DA54, 1-478: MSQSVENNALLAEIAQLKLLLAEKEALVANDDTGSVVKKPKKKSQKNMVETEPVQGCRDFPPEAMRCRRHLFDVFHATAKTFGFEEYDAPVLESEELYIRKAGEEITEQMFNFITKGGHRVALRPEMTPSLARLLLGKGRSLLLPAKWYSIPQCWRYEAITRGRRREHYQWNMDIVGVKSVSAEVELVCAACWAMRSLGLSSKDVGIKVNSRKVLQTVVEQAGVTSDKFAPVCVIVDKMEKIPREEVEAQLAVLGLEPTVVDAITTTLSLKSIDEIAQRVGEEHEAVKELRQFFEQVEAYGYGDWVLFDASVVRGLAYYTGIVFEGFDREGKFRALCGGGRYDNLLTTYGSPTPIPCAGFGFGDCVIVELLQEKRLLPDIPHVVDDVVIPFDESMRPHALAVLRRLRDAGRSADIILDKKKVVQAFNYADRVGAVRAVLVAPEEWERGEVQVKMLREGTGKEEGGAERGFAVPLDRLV

Results are given as percent effect.
How 0% and 100% were set is not recorded. Most values in the screen are low, and negative values occur.
Compounds were drawn at random from those tested, without regard to their results.

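Enzyme assay of histidyl-tRNA synthetase; the read-out is not stated. Target: Histidine-tRNA ligase, Trypanosoma cruzi CL Brener (UniProt Q4DA54). Compounds at 30 µM. Higher reads as stronger inhibition (inferred: compounds with an IC50 in retests scored well above the rest). Of about 69,000 compounds tested this way, about 31 (0.045%) reached 50% or more in at least one test.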

Result for O=C(NCc1ccccc1F)NCC(O)c1cccc(F)c1 (stereo not shown) was 3.725%.
Result for COCC1(CNC(=O)Nc2cc(F)ccc2OC)CCCC1 was 7.027%.
Result for CC(C)c1cc(NC(=O)CNC2CCCN(c3cccnn3)C2)on1 (stereo not shown) was 10.6%.
Result for Cc1ccc(C(=O)N2CCCC(c3cc(C(F)(F)F)[nH]n3)C2)o1 (stereo not shown) was 4.678%.
Result for Cc1cc(NC(=O)Nc2ccc3c(ccn3CCN(C)C)c2)n(C)n1 was -2.564%.
Result for CCCc1nnc(N2CCN(c3cccc(OC)c3)C(=O)C2)o1 was -1.136%.
Result for Cn1cc(C2=CCN(CCCC(=O)Nc3ccc(C#N)cc3)CC2)cn1 was -2.679%.
Result for CNC(=O)NC(=O)C(C)N1CCN(C2CCCC2)CC1 (stereo not shown) was -1.176%.
Result for Cc1cc(C)c2c(C(=O)N(C)C)cc(-c3cnc(N)nc3)nc2c1 was 7.778%.
Result for Cc1noc(C(C)N2CCN(CCN3CCCC3=O)CC2)n1 (stereo not shown) was 6.395%.
Result for CCOc1ncccc1C(=O)N1CCCC1Cn1nc(C)cc1C (stereo not shown) was 3.79%.
Result for CC(=O)Nc1c(C)noc1/C=C\c1ccc(S(=O)(=O)N2CCCC2)cc1 was -1%.
Result for CC(C)n1ccc2c(NC(=O)c3n[nH]c4c3CCC4)cccc21 was 6.931%.
Result for Cc1ccc(F)cc1S(=O)(=O)NCc1cccc(CS(C)(=O)=O)c1 was 4.706%.
Result for Cc1[nH]nc2ncc(C(=O)N3CCN(CC(C)(C)O)CC3)cc12 was 4.255%.
Result for Cn1ccnc1C(=O)N1CCC2(CCN2CC2CC2)C1 (stereo not shown) was 1.604%.
Result for CCCOc1ccccc1C(N)CC(C)C (stereo not shown) was 2.41%.
Result for CC(C)[C@H](NS(C)(=O)=O)C(=O)NCc1cc(-c2ccco2)nn1C was 2.26%.
Result for CC(C)NC(=O)N1CCCCC1c1nnc2n1CCNC2 (stereo not shown) was 2.959%.
Result for COc1cccc(Cn2[nH]c(C)c3c(NC(=O)C(C)OC)nnc2-3)c1 (stereo not shown) was 2.591%.
Result for c1ccc(N(CCn2cncn2)CC2CC2)cc1 was 8.407%.
Result for CC(C(=O)NCc1ccnc(N2CCN(C)CC2)c1)S(C)(=O)=O (stereo not shown) was 2.959%.
Result for O=C(O)CSc1nnc(-c2cn[nH]c2)n1-c1ccccc1Cl was 0%.
Result for COCCn1ccc2cc(C(=O)NC3CCOC(C)(C)C3)ccc21 (stereo not shown) was 8.333%.
Result for CN(CCn1ccc2ccccc21)C(=O)CS(C)(=O)=O was -1.093%.
Result for c1cncc(O[C@H]2COCCN(Cc3c[nH]c4ccccc34)C2)c1 was 17.82%.
Result for Cc1cncc(C(=O)N2CCCCC2c2nc(C)cs2)c1 (stereo not shown) was -3.053%.
Result for O=C1OCCC1N1CCN(c2ccc(O)cc2)CC1 (stereo not shown) was 4.202%.
Result for CN1CCOC(C(=O)Nc2ccc3c(c2)nc(C2CC2)n3C)C1 (stereo not shown) was 2.793%.
Result for CCc1c(C(=O)NCC2CCS(=O)(=O)C2)cnn1-c1ccccc1 (stereo not shown) was 1.153%.
Result for Cc1csc2c(N3CCNC(C(=O)Nc4ccc(F)cc4)C3)ncnc12 (stereo not shown) was 12%.
Result for COCCC(=O)N1CCCC2(CCCN2Cc2ccccc2F)C1 (stereo not shown) was 3.067%.
Result for Brc1ccc(NCCCOC2CCOCC2)nc1 was 12.7%.
Result for Cc1cccc(C2CCCN2C(=O)CCS(C)(=O)=O)c1C (stereo not shown) was 5.844%.
Result for CC(Nc1cccc(CN2CCOC2=O)c1)C(=O)NC(=O)NC(C)(C)C (stereo not shown) was 7.331%.
Result for CC1COCCN1Cc1nc(-c2ccc(Br)s2)no1 (stereo not shown) was 2.907%.
Result for Cc1cc(F)c(C(C(=O)O)N2CCN(Cc3ccccn3)CC2)cc1Cl (stereo not shown) was 2.041%.
Result for CC(C)Cn1cncc1CNC(=O)c1cccc(CC2CCNCC2)c1 was 1.622%.
Result for c1ccc(NCc2ccc(Cn3ccnc3)cc2)nc1 was 5.752%.
Result for Cc1cc(OCC(N)=O)ccc1NC(=O)C(C)Cc1ccccc1F (stereo not shown) was 10.5%.
Result for COCC1CN(C(=O)COc2ccccc2C)Cc2ncn(C)c21 (stereo not shown) was 6.329%.
Result for CN(C)S(=O)(=O)N1CCC(c2ccnc(Nc3ccccn3)n2)C1 (stereo not shown) was 6.513%.
Result for O=C(c1cscn1)N1C[C@H]2CCCC(OCc3cccnc3)[C@H]2C1 (stereo partly shown) was 4.865%.
Result for CCc1nc(CN(C)C2CCCN(c3cccnn3)C2)no1 (stereo not shown) was 4.598%.
Result for O=C(O)c1c[nH]c2cc(NS(=O)(=O)c3cccc(Cl)c3F)ccc12 was 0.7634%.
Result for O=c1ccc2c(n1CCN1CCCC1)CCN(Cc1ccoc1)CC2 was 0.8264%.
Result for Cc1nc(CN(C)C(=O)C2CCC(=O)N(CCN(C)C)C2)cs1 (stereo not shown) was 5.978%.
Result for CCOc1ccnc(N2CCN(C(=O)C(C)(C)C#N)CC2)n1 was -2.273%.
Result for CC(C)(C)c1n[nH]cc1CNC1CCC(C(F)(F)F)CC1 (stereo not shown) was 4.478%.
Result for COCCn1ccc2c(NC(=O)c3n[nH]c4c3CCCC4)cccc21 was -20.79%.

Once more, the final 5:

| compound | percent effect |
|---|---|
| `O=c1ccc2c(n1CCN1CCCC1)CCN(Cc1ccoc1)CC2` | 0.8264 |
| `Cc1nc(CN(C)C(=O)C2CCC(=O)N(CCN(C)C)C2)cs1` (stereo not shown) | 5.978 |
| `CCOc1ccnc(N2CCN(C(=O)C(C)(C)C#N)CC2)n1` | -2.273 |
| `CC(C)(C)c1n[nH]cc1CNC1CCC(C(F)(F)F)CC1` (stereo not shown) | 4.478 |
| `COCCn1ccc2c(NC(=O)c3n[nH]c4c3CCCC4)cccc21` | -20.79 |

Source: ChEMBL document CHEMBL3988442, “University of Dundee, Small-Polar-MMV Screening Library” (2021).